Test results from PubChem BioAssay AID1487 (National Center for Advancing Translational Sciences (NCATS), 2009).
Some of the results follow. Further columns of the screen follow, without active or inactive calls. The list favours compounds with an active or inconclusive main result. Words in brackets tell the shape of the fitted curve; partial curves, single points and poor fits give uncertain potencies.

Experiment: qHTS Assay for Modulators of Lamin A Splicing
Conditions: HeLa LMNA splicing GFP/RFP minigene ratio, 48 h
Outline: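 S3 HeLa stable clones carrying a lamin A-EGFP splicing minigene plus DsRed2 were seeded at 600 cells/well in Opti-MEM with 2% FBS, pin-dosed and incubated 48 h at 37°C. Acumen cytometry (488 nm) gave the GFP/RFP total-intensity ratio.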

[1] = measured here: RFP viability control channel
[2] = measured here: GFP splicing reporter channel

| SMILES | AC50 [1] | AC50 [2] |
| --- | --- | --- |
| N#CCCn1cc(/C=N/NC(N)=S)c(-c2ccc(Br)cc2)n1 | 17.8 µM [falling, partial curve] |  |
| O=C(c1ccc(S(=O)(=O)c2ccccc2)cc1)N1CCCCCC1 | 11.2 µM [rising, single point] |  |
| CC(C)OC(=O)c1c(NC(=O)CCn2nnc3ccccc32)sc2c1CCCC2 | 22.4 µM [rising, single point] | 15.8 µM [rising, single point] |
| c1csc(C2C3=C(Nc4ncnn42)c2ccccc2OC3)c1 (stereo unspecified) | 5.01 µM [rising, partial curve] |  |
| O=C(CSc1nnc(CN2CCCCCC2=O)n1-c1ccccn1)NCC(F)(F)F | 10 µM [falling, partial curve, poor fit] |  |
| C=CCOC(=O)C1=C(C)NC(SCC(=O)Nc2ccccc2)=C(C#N)C1c1ccco1 (stereo unspecified) | 31.6 µM [rising, single point] | 35.5 µM [rising, single point] |
| CCC(=C(CC)c1ccc(O)cc1)c1ccc(O)cc1 | 7.94 µM [falling, partial curve] | 7.94 µM [falling, partial curve] |
| CC(C)C(NC(=O)c1ccccc1F)C(=O)OCC(=O)c1ccc(F)cc1 (stereo unspecified) |  | 2.51 µM [rising, full curve] |
| C/C(=N\NC(=O)CN(c1ccccc1)S(C)(=O)=O)c1ccccc1O |  | 0.0224 µM [falling, full curve, poor fit] |
| Cc1cc2cc(CNC(=O)c3ccc4c(c3)OCO4)ccc2[nH]1 | 31.6 µM [rising, single point] | 35.5 µM [rising, single point] |
| O=C(C1CCC1)N(CCc1ccccc1)Cc1nc2ccccc2c(=O)[nH]1 | 22.4 µM [rising, partial curve, poor fit] | 0.0224 µM [rising, full curve, poor fit] |
| O=C(O)c1c(-c2ccccc2)c(-c2ccccc2)nc2ccccc12 | 0.0501 µM [rising, full curve] |  |
| S=C(NCCc1ccccc1)Nc1ccc(Cl)cc1Cl | 12.6 µM [rising, partial curve] |  |
| CCOc1ccc(N=c2scc(-c3ccccc3)n2CCO)cc1 | 22.4 µM [rising, single point] |  |
| O=C(Nc1nc(-c2ccc(S(=O)(=O)N3CCCC3)cc2)cs1)c1cccs1 | 2.24 µM [rising, full curve] |  |
| O=c1[nH]c2ccc(S(=O)(=O)N3CCC(Cc4ccccc4)CC3)cc2o1 | 14.1 µM [rising, partial curve] | 11.2 µM [rising, partial curve, poor fit] |
| CCC(=O)Nc1ccc(C(=O)N/N=C/c2c(C)[nH]c3ccccc23)cc1 |  | 31.6 µM [falling, single point] |
| CCOc1nc(C)ccc1-c1noc(-c2ccccn2)n1 |  | 14.1 µM [rising, single point] |
| COc1ccc(C(=O)NC(Cc2ccc(OC(=O)c3ccc(OC)cc3)cc2)C(=O)O)cc1 (stereo unspecified) | 0.0126 µM [falling, full curve, poor fit] |  |

Reformatted comma-delimited: entries from further up.
SMILES,AC50 [1],AC50 [2]
O=C(Nc1nc(-c2ccc(S(=O)(=O)N3CCCC3)cc2)cs1)c1cccs1,"2.24 µM [rising, full curve]",
O=c1[nH]c2ccc(S(=O)(=O)N3CCC(Cc4ccccc4)CC3)cc2o1,"14.1 µM [rising, partial curve]","11.2 µM [rising, partial curve, poor fit]"
CCC(=O)Nc1ccc(C(=O)N/N=C/c2c(C)[nH]c3ccccc23)cc1,,"31.6 µM [falling, single point]"
CCOc1nc(C)ccc1-c1noc(-c2ccccn2)n1,,"14.1 µM [rising, single point]"
COc1ccc(C(=O)NC(Cc2ccc(OC(=O)c3ccc(OC)cc3)cc2)C(=O)O)cc1 (stereo unspecified),"0.0126 µM [falling, full curve, poor fit]",

(list continues)

| SMILES | AC50 [1] | AC50 [2] |
| --- | --- | --- |
| CCSc1ccc(C(=O)Nc2cccc(C)n2)cc1[N+](=O)[O-] | 0.0158 µM [falling, full curve, poor fit] |  |
| O=C(/C=C/c1cccc([N+](=O)[O-])c1)Nc1cccc(NC(=O)c2cccs2)c1 | 22.4 µM [rising, single point] |  |
| CCOC(=O)C(C(=O)OCC)C(Nc1cccc(Br)c1)c1ccccc1 (stereo unspecified) | 20 µM [falling, partial curve] | 15.8 µM [falling, partial curve] |
| CC1CCCCN1C(=O)CSc1nc(C2CC2)nc2c1cnn2-c1ccccc1 (stereo unspecified) |  | 3.98 µM [rising, single point] |
| O=C(NCCc1ccccn1)c1ccc(NS(=O)(=O)c2ccc(F)cc2)cc1 |  | 0.0794 µM [rising, full curve] |
| NC(=O)/C(=N\OC(=O)c1ccco1)c1nc(-c2ccc(Br)cc2)cs1 | 22.4 µM [falling, single point] | 20 µM [falling, single point] |
| COCn1c(-c2cccc(Br)c2)nc2ccccc21 | 15.8 µM [rising, single point] |  |
| CCn1cc(C(=O)NCC2CCCO2)c(=O)c2cc(S(=O)(=O)N3CCCCC3)ccc21 (stereo unspecified) | 8.91 µM [rising, partial curve, poor fit] | 11.2 µM [rising, single point] |
| Cc1ccc(SCc2ccc(C(=O)NCc3cccnc3)cc2)cc1 | 35.5 µM [rising, single point] |  |
| O=C(NCc1cccnc1)c1ccc(-c2ccc(Cl)cc2)o1 | 14.1 µM [falling, partial curve, poor fit] |  |
| Fc1ccc(N2CCN(c3ncnc4[nH]ncc34)CC2)cc1 | 0.178 µM [falling, full curve, poor fit] |  |
| Cc1ccc(N2C(=O)c3ccccc3C2C(=O)c2cc(C)ccc2O)cc1 (stereo unspecified) | 11.2 µM [rising, partial curve] | 8.91 µM [rising, partial curve] |
| Cc1occc1-c1nnc(SCC(=O)N2CCN(c3ccccc3F)CC2)n1C | 31.6 µM [rising, single point] | 35.5 µM [rising, single point] |
| CN(CC(=O)Nc1ccccc1Sc1ccccc1)C1CCCCC1 | 35.5 µM [rising, single point] | 14.1 µM [rising, partial curve, poor fit] |
| O=C(CCCOc1ccccc1)Nc1ccc(S(=O)(=O)Nc2ccccn2)cc1 | 0.0112 µM [falling, full curve, poor fit] |  |
| CCN1CCN(C(c2ccc(F)cc2)c2sc3nc(-c4ccco4)nn3c2O)CC1 (stereo unspecified) | 3.55 µM [rising, single point] | 5.62 µM [rising, single point] |
| COc1ccc(C(=O)C2CCCN(Cc3ccc4nonc4c3)C2)cc1F (stereo unspecified) | 10 µM [falling, partial curve, poor fit] | 12.6 µM [falling, single point] |
| CSc1ccc(/C=C/C(=O)c2ccc(NC(=O)Cc3ccccc3)cc2)cc1 | 11.2 µM [falling, partial curve] | 15.8 µM [falling, single point] |
| Nc1ncnc2c1ncn2[C@@H]1O[C@H](CO)C[C@@H]1O |  | 0.891 µM [falling, full curve, poor fit] |

| SMILES | AC50 [1] | AC50 [2] |
| --- | --- | --- |
| CN(C)S(=O)(=O)c1cccc(NC(=O)c2ccc(N3CCOCC3)c([N+](=O)[O-])c2)c1 | 35.5 µM [rising, single point] |  |
| COc1ccccc1NS(=O)(=O)c1ccc(NC(=O)Cc2cccs2)cc1 | 14.1 µM [rising, single point] |  |
| Cc1cccc(CCNC(=O)CCS(=O)(=O)c2cc3c(cc2C)NC(=O)CO3)c1 | 0.141 µM [falling, full curve, poor fit] |  |
| c1cncc(CN=C2Nc3ccccc3CS2)c1 |  | 0.562 µM [falling, full curve, poor fit] |
| COC(=O)c1cc(=O)n(CCc2ccccc2F)c(=Nc2ccc(F)c(Cl)c2)s1 | 28.2 µM [falling, single point] | 15.8 µM [falling, single point] |
| Clc1ccccc1CSC1=NCCN1 |  | 17.8 µM [falling, single point] |
| N=C(N)CCCOc1ccccc1-c1ccccc1 | 31.6 µM [rising, single point] |  |
| COc1ccc(CNC(=O)c2sc3nc4n(c(=O)c3c2C)CCC4)cc1 | 0.282 µM [falling, full curve, poor fit] |  |
| CCOC(=O)c1c(NC(=O)CN2C(=O)NC3(CCCCCC3)C2=O)sc(C)c1-c1ccc(C)cc1 |  | 0.224 µM [rising, full curve, poor fit] |
| OCCCNc1ncnc2sc(-c3ccccc3)cc12 | 6.31 µM [rising, partial curve] |  |
| Cc1ccc(Nc2nc(Nc3ccc(C)cc3)nc(SC3=NCCS3)n2)cc1 |  | 12.6 µM [falling, single point] |
| CC(C)(C)c1ccc(C(=O)NC(Cc2c[nH]c3ccccc23)C(=O)OCC(=O)c2ccc(Br)cc2)cc1 (stereo unspecified) | 0.501 µM [falling, full curve, poor fit] |  |
| COc1cc2nc(CSc3nc(-c4ccc(F)cc4)cs3)[nH]c(=O)c2cc1OC | 7.08 µM [rising, partial curve] |  |
| COc1cc(C(=O)NCc2ccccc2)cc(Br)c1OC | 6.31 µM [falling, full curve, poor fit] | 5.62 µM [falling, full curve, poor fit] |
| CCCCOc1cccc(C(=O)NNC(=S)NC2CCCCC2)c1 | 22.4 µM [rising, single point] | 15.8 µM [rising, single point] |
| COc1ccccc1-c1noc(CSc2nc(C)cc(=O)[nH]2)n1 |  | 39.8 µM [falling, partial curve, poor fit] |
| CCOc1cc(C2NC(=O)NC(O)(C(F)(F)F)C2C(=O)c2ccc(Cl)cc2)ccc1O (stereo unspecified) | 35.5 µM [rising, single point] |  |
| Cc1cc(F)ccc1NC(=O)CS(=O)(=O)c1cccc2nsnc12 |  | 3.16 µM [falling, partial curve, poor fit] |
| Fc1ccc2nc(Nc3nc4cc5c(cc4s3)OCCO5)sc2c1 | 25.1 µM [rising, partial curve] | 3.98 µM [rising, full curve, poor fit] |
